This is one part of the list. Many values rest on one well or one pass, so single values are uncertain.

In the assay the test system is Saccharomyces cerevisiae BY4743. In words: growth (OD600) relative to untreated control; higher = less growth inhibition. Particulars: compound concentration: 133 uM; 20 h. The procedure: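 NMCCC compounds (133 uM, no IPBC) tested alone against Saccharomyces cerevisiae BY4743 in YPD, 96-well plates, starting OD600 ~0.1. Growth was read as OD600 at 20 h and expressed as % of the untreated control. Single pass.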
Turning to `COC1=CC=CC(=C1)\C2=C\CN(C(=O)N2)C3=CC=CC=C3O`, the growth turned out to be 111%. With `CCCc1ccc(C(O)CSc2nnc(O)n2C2CC2)cc1` (stereo not given), the growth stood at 111%. Consider `Cn1cc(S(=O)(=O)N2CCCC2)cc1C(=O)OC(c1cc(F)cc(F)c1)C(F)(F)F` (stereo not given), for which the growth was 98.5%. `Cc1nn(Cn2cc(Cl)cn2)c(C)c1NC(=O)c1ccc(Cl)cc1` displayed a growth of 110%. `COc1ccc(S(=O)(=O)N(C)C)cc1NC(=O)CNC(c1ccccc1)C(C)C` (stereo not given) came in with a growth of 106%.

Compound `CC(C)C(=O)NC1=CC=C(C=C1)C(=O)C(C)OC(=O)CN2\C=N/C3=C(C=CS3)C2=O` (stereo not given) returned a growth of 102%. For `CCSc1nnc2c(n1)OC(CC)N(C(C)=O)c1ccccc1-2` (stereo not given), the growth is 92.1%. As to `CCOc1ccc(OCC)c(NC(=O)Nc2ccc3c(c2)N(C)C(=O)CS3)c1`, the growth is 94.2%.

As for `CCOC(=O)c1ccc(NC(=O)CSc2nc3[nH]cc(Br)c(C)c-3n2)cc1`, the growth is 87.1%. `COC(=O)C1Cc2ccccc2CN1C(=O)CN(C)CCOc1ccccc1` (stereo not given) showed a growth of 109%. As to `CN(C)S(=O)(=O)c1cccc(COc2ncnc3c(Cl)cc(Cl)cc23)c1`, the growth was determined as 109%. Under `Cc1nc(C)c(C#N)c(SCc2nc(O)c3cccc(C)c3n2)n1` stands 109%; under `CCN(CC)c1ccc(C(=O)Nc2nc(C)c(SCC#N)s2)cn1`, 74.3%. `O=C(NCc1cc(-c2ccccc2)no1)C(=O)Nc1cc(F)cc(F)c1` came in with a growth of 106%. `CCC(=O)Nc1ccc(S(=O)(=O)N2CCN(C)c3ccccc32)cc1` had a growth of 103%. Under `O=C1CCCCC1Sc1nnc(O)n1Cc1ccccc1` (stereo not given) stands 93.2%; under `Cc1ccc(-c2ncccc2C(=O)Nc2cccc(F)c2)s1`, 103%. `Cc1nc(SC(C)C(=O)N2CCNC2=O)c(C#N)c(C)c1C` (stereo not given) yielded a growth of 92%. `FC(F)(F)C/1=C/N(CC/2=C/C(=O)N/3\C=C(Br)/C=C\C3=N2)C(=O)/C=C1` gave a growth of 103%. In turn, `COC(=O)c1cc(C)nc2c1cnn2-c1ccc(F)cc1` showed a growth of 114%. As to `CCCCN1\C(=N/[S](=O)(=O)C2=CC(=CC=C12)C(=O)NCCN3CCOCC3)C`, the growth amounted to 109%.

Take `CC(OCc1ccccc1)C(=O)Nc1cccc2c[nH]nc12` (stereo not given): the growth turned out to be 92.9%. The compound `CCc1cc2c(SC(C(N)=O)c3ccc(F)cc3)ncnc2s1` (stereo not given) registered a growth of 95.1%.

`CC1=C(Cl)C=CC=C1NC(=O)C\C2=N\[S](=O)(=O)C3=CC=CC=C3N2` came in with a growth of 106%.

`Cn1c(Cc2nnnn2Cc2ccc(Cl)cc2Cl)nnc1SCC(N)=O` returned a growth of 101%. In turn, `CCc1ccc(S(=O)(=O)N(CCCN2CCCC2=O)CC(=O)N2CCNCC2)cc1` returned a growth of 108%.

Compound `CCOC(=O)c1sc(NC(=O)C(F)(F)F)c(C(=O)OC)c1C` showed a growth of 96.3%. On to `O=C1O\C(=N/N1CCC#N)C2=CC=CS2`, for which the growth came to 100%. For the compound `CSc1nsc(NC(=O)CN(C)Cc2ccc(Cl)s2)n1`, the growth was determined as 109%.

`Cc1ccc(S(C)(=O)=O)cc1C(=O)Nc1nc2cc(Cl)ccc2n1C` returned a growth of 84.4%. Compound `CC(=O)c1oc2ccccc2c1NC(=O)CSc1nc[nH]n1` registered a growth of 110%. For `CCOc1ccc(S(=O)(=O)N2CCOCC2)cc1NC(=O)CCc1ccsc1`, the growth is 101%. `O=C(CN1\N=N/C2=CC=CC=C2C1=O)NC3(CCCCC3)C#N` gave a growth of 96.9%. With `CCCN(CCC)S(=O)(=O)c1ccc2c(c1)N(CC(=O)OC)C(=O)CS2`, the growth was found to be 112%. On to `Cc1nc(C)c(C(=O)OCC(=O)Nc2sc3c(c2C(N)=O)CCCC3)s1`, for which the growth came out at 106%.

`CN(C)c1cccc(C(=O)OCc2cn3cc(Cl)ccc3n2)c1` returned a growth of 71.6%.

Compound `COC(=O)c1cc(OCC(=O)c2ccc[nH]2)cc(C(=O)OC)c1` registered a growth of 100%. Under `Cc1ccc(-c2noc(CCCC(=O)Nc3nncs3)n2)cc1` stands 86.5%; under `FC(F)(F)c1cnc(SCc2noc(-c3ccsc3)n2)c(Cl)c1`, 105%; under `CCn1c(NC(=O)c2cc(Cl)c(OC)c(OC)c2)nc2ccccc21`, 98.7%.

(Values after the supplement of paper PMC8007513.)
